The list shows a part of the results. These are further read-outs of the screen, such as a control signal, another cell line or another target. No call is given for them. Most of these compounds were active or inconclusive in the main read-out, so they are no random draw. Words in brackets tell the shape of the fitted curve; partial curves, single points and poor fits give uncertain potencies.

The assay can be described thus: Cell signaling CRE-BLA (Fsk stim). The conditions noted are these: CHO CRE-bla reporter (cAMP response element driving beta-lactamase), forskolin EC10, beta-lactamase ratio; measured here: 460 nm blue channel. The text has this: NIH Molecular Libraries Screening Centers Network [MLSCN]
NIH Chemical Genomics Center [NCGC]
Assay Provider: Marshall W. Nirenberg, U.S. National heart lung & blood institute
Memories persist for different lengths of time, from seconds or minutes to a lifetime. There are two kinds of memory: short-term memory (STM) and long-term memory (LTM). STM lasts for minutes to hours, which maybe mediated by modifications of molecules involved in synaptic functions. LTM lasts for days or longer, and may be due to the formation of new synapses or restructuring of existing synapses. LTM, but not STM, requires gene transcription and synthesis of proteins. CREB (cyclic-AMP Responsive Element Binding Protein) is one of the candidates plays an important role for enhancement of some types of LTM. CREB, a family of transcription factors, regulates the transcription of genes containing cAMP Responsive Elements (CRE). CRE is a nucleotide sequence often found in the promoter regions of genes that are binding sites for CREB.
Using a beta-lactamase reporter-gene under control of cAMP responsive element, a cell-based assay [CellSensor(TM) CRE-bla CHO developed by Invitrogen Corp.] was used to measure forskolin-induced signaling. Library compounds were measured for their ability to modulate positively or negatively the action of EC10 NKH 477, a water soluble forskolin, on reporter gene activity. Compounds were screened in a titration series in 1536-well format. Positive and negative modulators were identified based on the AC50 values derived from the screening data.
NCGC Assay Protocol Summary
2000 cells/5uL in Opti-MEM medium containing 0.5% dialyzed FBS, 0.1 mM NEAA, 1 mM sodium pyruvate and 10 mM HEPES was dispensed into 1536-well plates and cells were cultured at 37 degrees Celsius overnight. […] And then the plates were incubated at 37 degrees Celsius for 3 hours. 1 uL of CCF4-dye mixture was added to each well. After incubated at room temperature for 2 hours the plates were measured on an EnVision plate reader at Excitation 405nm, Emission1=460nm and Emission 2=530nm. The %Activity was determined from the ratio of 460nm/530nm.
Keywords: NIH Roadmap, MLSCN, MLSMR, qHTS, NCGC, CRE, beta-lactamase reporter-gene assay.
Consider `COc1ccc(Cn2c(=O)[nH]c3cc(C(=O)NCc4ccc5c(c4)OCO5)ccc3c2=O)cc1`, for which the AC50 is 12.6 µM [falling, single point].

Turning to `CCCC(=O)N1c2ccc(-c3csc(N)n3)cc2CC1C` (centres undefined), the AC50 is 12.6 µM [rising, single point].

As for `COc1ccc(Cc2nnc(-c3cccc(C)c3)o2)cc1OC`, the AC50 was 3.16 µM [rising, full curve]. Regarding `Cc1c(/N=C/c2ccco2)n(Cc2ccccc2)c2ccccc12`, the half-maximal activity concentration (AC50) is 5.01 µM [falling, single point]. In the case of `CCOC(=O)c1sc(NC(=O)CSc2nnc(C)s2)c(C(=O)OCC)c1C`, the AC50 is 1.58 µM [rising, full curve, poor fit]. Regarding `O=C(CN1C(=O)c2ccccc2S1(=O)=O)NCc1cccnc1`, the AC50 was 0.00316 µM [rising, full curve, poor fit]. The same measure for `O=C(c1ccc(N2CN(C(=O)c3ccco3)c3nc4ccccc4nc32)cc1)N1CCOCC1`: 12.6 µM [rising, single point]. For the compound `O=C(O)CCc1ccc(-c2cccs2)n1NC(=O)c1ccc(Cl)cc1`, the AC50 is 0.00316 µM [falling, full curve, poor fit]. On to `Cc1sc2nc3ccc(N4CCCCC4)nn3c(=O)c2c1C`, for which the AC50 was 10 µM [rising, single point]. Take `OCCN1CCN(c2ncnc3nc[nH]c23)CC1`: the AC50 was 10 µM [rising, partial curve]. The same measure for `Cc1ccc(-c2nc(C3CCCN(S(=O)(=O)c4ccc(C)cc4)C3)no2)cc1` (centres undefined): 15.8 µM [falling, single point]; for `CCC(C)NC(=O)c1cnn2c(C)c3c(nc12)CCCC3` (centres undefined): 7.94 µM [rising, partial curve]. Consider `COc1ccc(CC(=O)NC(CC(=O)O)c2ccc(OC)cc2)cc1` (centres undefined), for which the AC50 is 5.01 µM [falling, partial curve, poor fit]. As for `CCN(CC)c1nc(N)c2c(N)n(-c3ccccc3C)c(=S)c(C#N)c2c1C#N`, the figure is 20 µM [falling, partial curve]. Consider `Cn1c2ccccc2c2c(C(=O)NCCCN3CCCC3=O)cn(C3CCCCC3)c(=O)c21`, for which the AC50 was 12.6 µM [rising, partial curve]. `O=c1c(-c2ccc(Cl)cc2)nc2cnc(N3CCOCC3)nc2n1CCc1ccccc1`: the AC50 is 12.6 µM [rising, partial curve]. For `O=C(Nc1c(-c2ccccc2)nc2c(Br)cc(Br)cn12)c1ccco1`, the AC50 was 0.501 µM [falling, full curve, poor fit]. Regarding `O=C(Cn1[nH]c(=O)c2ccccc2c1=O)Nc1ccc2c(c1)CCC2`, the AC50 was 10 µM [rising, partial curve]. `COc1cc(OC)c(Nc2cc(C)nc3nc(C)nn23)cc1Cl`: the AC50 is 10 µM [rising, partial curve].

Regarding `COc1ccc(CNC(=O)c2cccc3c2C(=O)N(Cc2cccnc2)C3)cc1`, the AC50 was 3.98 µM [rising, full curve].

For `Cc1cc(NC(=O)c2ccccc2Oc2ccccc2)no1`, the AC50 is 12.6 µM [rising, single point]. As for `O=C1c2ccccc2C(Nc2cccc(C(F)(F)F)c2)N1Cc1ccco1` (centres undefined), the figure is 25.1 µM [falling, single point]. In the case of `c1ccc2c(c1)-c1cccc3c1c-2cc1ccccc13`, the AC50 is 25.1 µM [rising, partial curve]. As for `Cc1ccc(C)c(CSc2nnc(-c3cccnc3)n2N)c1`, the figure is 10 µM [falling, partial curve]; as for `CCCn1c(SCC(=O)N2CCCc3ccccc32)nnc1-c1ccco1`, 12.6 µM [rising, single point]. As to `Cc1nn(CCCC(=O)N2CCc3ccccc3C2)c(=O)c2cc3sccc3n12`, the AC50 is 10 µM [rising, single point]. For `O=C(O)CNC1=NCCCCC1`, the AC50 was 5.01 µM [falling, single point]. On to `COc1ccc2[nH]c(=O)c(CN(Cc3cccs3)Cc3nnnn3C(C)(C)C)cc2c1`, for which the AC50 was 12.6 µM [rising, single point]. As for `CCOC(=O)C1=CN(C)C=C(C(=O)OCC)C1c1ccsc1`, the AC50 was 10 µM [rising, partial curve]. `CSc1nc2c(c(=O)n1Cc1ccccc1)SC(C)C2` (centres undefined): the AC50 is 12.6 µM [rising, partial curve]. `Cc1nnc(NC2=NCCCCC2)o1`: the AC50 is 1 µM [falling, partial curve, poor fit].

As for `Clc1cccc(C=NC=Nc2cccc(Cl)c2)c1`, the AC50 was 0.0158 µM [rising, full curve, poor fit].

With `COc1cc(S(=O)(=O)N2CCN(Cc3ccc4c(c3)OCO4)CC2)c(C)cc1C`, the AC50 is 15.8 µM [falling, partial curve, poor fit]. Consider `Cc1ccc(SCC(=O)N2CCCC2)cc1`, for which the AC50 was 0.00316 µM [falling, full curve, poor fit].

For `Cc1ccc(S(=O)(=O)C(C#N)c2nc3ccccc3nc2N2CCCC2)cc1` (centres undefined), the AC50 is 3.16 µM [rising, full curve].

As to `COc1ncc2nc(CCc3ccccc3)c(=O)n(-c3ccccc3)c2n1`, the AC50 is 12.6 µM [rising, partial curve]. As for `CCN(CC)CCCN1C(=O)C(O)=C(C(=O)c2ccco2)C1c1cc(OC)ccc1OC` (centres undefined), the AC50 was 0.316 µM [falling, partial curve].

For `Cc1nn(-c2ccc(F)cc2)c2sc(C(=O)OC3CCOC3=O)cc12` (centres undefined), the AC50 is 0.1 µM [rising, single point]. The same measure for `COC(=O)CSC1=C(C#N)C(c2ccccc2OC)C(C(=O)OC)C(=O)N1` (centres undefined): 1 µM [falling, partial curve]; for `CCOC(=O)c1sc(NC(=O)CSc2nnc(C(C)C)n2CC)nc1C`: 15.8 µM [rising, single point]. For `Cc1coc2c(C)c3oc(=O)c4c(c3cc12)CCCC4`, the AC50 is 12.6 µM [rising, partial curve].

Take `CCOc1ccccc1Nc1ncnc2c1cnn2-c1ccccc1`: the AC50 was 10 µM [rising, partial curve]. `CCc1cccc2nc3c(c([Si](C)(C)C)c12)Cn1c-3cccc1=O`: the AC50 is 10 µM [rising, partial curve]. The same measure for `COCCCn1c(-c2ccsc2)nc2c1c(=O)[nH]c(=O)n2Cc1ccccc1`: 12.6 µM [rising, single point].

A word on the AC50: it is the concentration at which the activity in the assay is half-maximal.

The values above are taken from PubChem BioAssay AID662 (National Center for Advancing Translational Sciences (NCATS), 2007).
